The text below walks through data of article PMC7819943, “Rice protein-binding microarrays: a tool to detect cis-acting elements near promoter regions in rice”.

Amino acid sequences for entries named in this document (tags omitted).
UniProt Q0JBA9, entry or part of it: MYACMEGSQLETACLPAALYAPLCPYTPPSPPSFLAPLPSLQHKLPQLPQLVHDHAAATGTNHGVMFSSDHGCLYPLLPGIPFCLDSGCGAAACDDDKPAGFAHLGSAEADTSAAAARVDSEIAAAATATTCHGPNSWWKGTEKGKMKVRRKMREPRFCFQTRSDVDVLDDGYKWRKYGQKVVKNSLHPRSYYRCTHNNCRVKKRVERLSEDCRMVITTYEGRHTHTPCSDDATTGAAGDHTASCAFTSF

This is one part of the list.

This assay deals with OsWRKY34 (Oryza sativa, UniProt Q0JBA9 1-250). The experiment in a line: protein-binding microarray (RPBM); PBS, 2% BSA, 51.3 ng/ul salmon testes DNA, 50 uM zinc acetate, 200 nM TF, 25 C, 1 h; high values mean tight binding. Conditions: protein: recombinant; tags: N-terminal polyhistidine and DsRed monomer fusion (pET32a); label: CyDye5-dUTP incorporated in the synthesized complementary strand; 3' TTTTT single-stranded linker to array surface; dsDNA, one strand shown. Put shortly: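 Transcription factors were made in E. coli BL21-CodonPlus as N-terminal fusions to a polyhistidine tag and DsRed, then purified on Ni–NTA. After primer extension with Cy5-dUTP and blocking with 2% BSA, a custom Agilent array was exposed for 1 h at 25 °C to 200 nM protein in PBS, 2% BSA, salmon testes DNA and 50 µM zinc acetate. Washed arrays were scanned on an Axon 4000B, and the binding signal is per-feature fluorescence intensity in arbitrary units.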
On to “TACCTCGACTCACCCTTCCATGGCCTCCTCCACACCTCCTCGGAGTCACCTAGTGCAG”, for which the binding signal was 9000 fluorescence intensity (a.u.).
As for “ATCATGCCTCAAATCATCGAATTGCTCTACAAATTTCATACGGAGTCACCTAGTGCAG”, the binding signal is 10300 fluorescence intensity (a.u.).
To “ACCCTCTTGACCTGCCCGGTTTCTCTCGAACACACCAAAACGGAGTCACCTAGTGCAG” belongs 9390 fluorescence intensity (a.u.).
To “GGGGTTGGGTTGGGTACTTGGGTTCGGGTGACTCAAGTAGCGGAGTCACCTAGTGCAG” belongs 13200 fluorescence intensity (a.u.); to “TAATTTTGAAGCCTGGTCCAGTCCACGCCACCAACGGACGCGGAGTCACCTAGTGCAG”, 8440 fluorescence intensity (a.u.).
The result for “AATATCTAACACTACTCCACACTGTCCACAATTACTGCGACGGAGTCACCTAGTGCAG” reads 9250 fluorescence intensity (a.u.); that for “CCCTAAATATTTGACGCCGTTGACTTTTTTAAATATGTTTCGGAGTCACCTAGTGCAG”, 27300 fluorescence intensity (a.u.).
With “CGCACATCCATCCACGTCATCGATCCGCGCCGCGTGCCTTCGGAGTCACCTAGTGCAG”, the binding signal was 9880 fluorescence intensity (a.u.).
For the sequence “TCCATCTAATATTCTTGAGGCCACCAATATATGCTTTTTCCGGAGTCACCTAGTGCAG”, the binding signal is 8730 fluorescence intensity (a.u.).
In the case of “TCCACCATTTACTTTTCCAATCTATCTCCATTACTCAACCCGGAGTCACCTAGTGCAG”, the binding signal was 10100 fluorescence intensity (a.u.).
Take “GGGATGGTGTTTGGGTTAGTGGCAAGTGGGGATAAGGGAACGGAGTCACCTAGTGCAG”: the binding signal was 8990 fluorescence intensity (a.u.).
To “CTTCACCCCGCCCACGCGGACGCATCCGATCCCGCCGCATCGGAGTCACCTAGTGCAG” belongs 11100 fluorescence intensity (a.u.).
As to “AATAAGGCGAATAGTCAAATATGTGAGAAAAAGTCAACGGCGGAGTCACCTAGTGCAG”, the binding signal is 9270 fluorescence intensity (a.u.).
To “AACTCACGTCGTTTTACATATATTCTCCATATTCTTTTTTCGGAGTCACCTAGTGCAG” belongs 8990 fluorescence intensity (a.u.).
Take “CCCATATTATTCTTACGTTTTTTCTATTCTTATGCTTTGACGGAGTCACCTAGTGCAG”: the binding signal is 10300 fluorescence intensity (a.u.).
To “CGGGTGAAAAATTCCTTGTCTCTTGTCTCATTTACTTGTTCGGAGTCACCTAGTGCAG” belongs 12600 fluorescence intensity (a.u.); to “TTGACCATGTAAAGTCAACTTCATTTCTGTGTGTGTTTTGCGGAGTCACCTAGTGCAG”, 8480 fluorescence intensity (a.u.); to “TGGCTCCGCCACGTCCTCGTCGCCTGGAACTCGCTCGTCTCGGAGTCACCTAGTGCAG”, 8680 fluorescence intensity (a.u.).
To “CTTGTTTCTTCTTCTTCTTCTAGATTTGATTTTCTTTTTTCGGAGTCACCTAGTGCAG” belongs 10000 fluorescence intensity (a.u.).
On to “CAGACTTTTCAGCTTCGGTTTCCCTTGTTTCTGATCTTTCCGGAGTCACCTAGTGCAG”, for which the binding signal is 8440 fluorescence intensity (a.u.).
To “CCAGTAGCTACACCACCCGGCCTTGTTTGGCAAAGCTCATCGGAGTCACCTAGTGCAG” belongs 8420 fluorescence intensity (a.u.).
Take “ATATTTGCACTTTTATACTAAACCACCATTAAATTTTGATCGGAGTCACCTAGTGCAG”: the binding signal is 9100 fluorescence intensity (a.u.).
Turning to “CGTCCTCACCCGCACGCAATCACCGCGAAAACGCCCAAAACGGAGTCACCTAGTGCAG”, the binding signal was 9680 fluorescence intensity (a.u.).
With “GCCGCTTCGTCCGCGACCGCCTCCGTCTCCGCGACCGGCCCGGAGTCACCTAGTGCAG”, the binding signal is 8200 fluorescence intensity (a.u.).
The result for “CCCATTTCGCACTCTATATATACACCATCCATTTTCAGTCCGGAGTCACCTAGTGCAG” reads 11300 fluorescence intensity (a.u.); that for “GGGCCAGTTTGCTCGTACAACTCACACACACTCATATCCACGGAGTCACCTAGTGCAG”, 8280 fluorescence intensity (a.u.).
To “TATTCCTGATTTTAGCACCATCGTCAGTTTTTTTTCATCTCGGAGTCACCTAGTGCAG” belongs 12100 fluorescence intensity (a.u.).
To “CGCCTATTCCGCCACGTACCGACGCCCGTTCCCGCAGATGCGGAGTCACCTAGTGCAG” belongs 9510 fluorescence intensity (a.u.); to “TTCACGTCGTTCCCGTTCAGCCCCGACGCCAGCAGCAGCCCGGAGTCACCTAGTGCAG”, 8500 fluorescence intensity (a.u.).
Take “AACTATTATGTAGAGGTTTGGGGCTTTGACTTTTGATGTTCGGAGTCACCTAGTGCAG”: the binding signal was 13300 fluorescence intensity (a.u.).
As to “GACCAACCTTCCAGATCTTCCTTTCTACCACTCACCTAGGCGGAGTCACCTAGTGCAG”, the binding signal was 8920 fluorescence intensity (a.u.).
With “ACACAGCCTAACTAACAAAACCGTTGACTCACCAATCGCCCGGAGTCACCTAGTGCAG”, the binding signal is 12200 fluorescence intensity (a.u.).
As for “GGAGTATTAGCTAGTCATCATTTGTTCTCTTCACCGACCGCGGAGTCACCTAGTGCAG”, the binding signal is 8270 fluorescence intensity (a.u.).
To “AGCCAGCTATTATTACCAATTCTTTGCAATTTGGGCTAGTCGGAGTCACCTAGTGCAG” belongs 9030 fluorescence intensity (a.u.); to “CACAGCGTTAGCTTCGTCCACCCAATTTGACTTTCCAATGCGGAGTCACCTAGTGCAG”, 9790 fluorescence intensity (a.u.); to “ATTTCCCTTCCCTTTCTTTCTTTCTTTCTTTCTTTCTTTCCGGAGTCACCTAGTGCAG”, 10500 fluorescence intensity (a.u.).
To “AATTTCTTTAATTATCCATAGATAGCTTTCCTTGTTTCTTCGGAGTCACCTAGTGCAG” belongs 9280 fluorescence intensity (a.u.); to “GTTGTCTTCTCCTATATAAGCTAAGATACTCTTCCACTCTCGGAGTCACCTAGTGCAG”, 8300 fluorescence intensity (a.u.); to “GCCCCACCGCCACCGCCACCGCCCACGCCGCCGCTCCATGCGGAGTCACCTAGTGCAG”, 9770 fluorescence intensity (a.u.).
To “GATCAGGGAGCTCGTTGACTTCACAGTGGATTGCCACACCCGGAGTCACCTAGTGCAG” belongs 8690 fluorescence intensity (a.u.); to “TCCAGGCTCGCCCTCGTTCCTCTCTCTCTCTCCTCGCAAACGGAGTCACCTAGTGCAG”, 10700 fluorescence intensity (a.u.).
Take “ACGGCGAGAGGTGGCTCGGTTTCGGTTTGACCGTTTTGGGCGGAGTCACCTAGTGCAG”: the binding signal is 11000 fluorescence intensity (a.u.).
The result for “ACGGGGATGACTCCGATGACTCTCCTGGCCTCGCCGCCTCCGGAGTCACCTAGTGCAG” reads 8120 fluorescence intensity (a.u.); that for “GACAGCTTCTTCCCGCGCCGGCGCCTCCGGCCGCTTCTCCCGGAGTCACCTAGTGCAG”, 9070 fluorescence intensity (a.u.); that for “CTGGTTGGTTCTCCCTTAGTTGATGCCAAACCATAACTTCCGGAGTCACCTAGTGCAG”, 9620 fluorescence intensity (a.u.).
As for “TTAAAAGGGAATTTATGTTATTTGTTCGGTTGTGGGTTTTCGGAGTCACCTAGTGCAG”, the binding signal was 8380 fluorescence intensity (a.u.).
As to “AGGTGTCATCTAGTTTTGCTTGTATAGCTAACCCCACACTCGGAGTCACCTAGTGCAG”, the binding signal was 8680 fluorescence intensity (a.u.).
To “TATTAGTTAGTATGGATTCACCATTTATTGACCATTTTGCCGGAGTCACCTAGTGCAG” belongs 8690 fluorescence intensity (a.u.).
To “TAAATTTGATTCCATTTCCGTTGCCTGTTCATTTCGTCGACGGAGTCACCTAGTGCAG” belongs 8300 fluorescence intensity (a.u.).
The result for “AACTCCTAGGCTGTGTTTGTATAACGATGCGTTTTTTACACGGAGTCACCTAGTGCAG” reads 8350 fluorescence intensity (a.u.).
On to “CTCTCTCTCTCTCTCTCTCTATATCTATCTCCGTTGCTTCCGGAGTCACCTAGTGCAG”, for which the binding signal was 12700 fluorescence intensity (a.u.).
To “GAGAGCGAGGGGTTGGTGGTGGTGTAGGGTTTTAGTTTACCGGAGTCACCTAGTGCAG” belongs 9600 fluorescence intensity (a.u.).
As for “GCTCATACTTGTTGTTCACGGACCTGTTTAAGCTACACTACGGAGTCACCTAGTGCAG”, the binding signal was 11100 fluorescence intensity (a.u.).
To “TATATGGTGGTATCGGCCGCTTTGGTTTCTCTAGTTCACTCGGAGTCACCTAGTGCAG” belongs 12000 fluorescence intensity (a.u.).
